Measured values from the supplement of paper PMC12297408.
What follows is the remainder of the data, with few or none of the hits.

Test system: Plasmodium falciparum NF54/iGP1_RE9H ulg8 stage V gametocytes
Assay: gametocyte viability (luciferase signal relative to DMSO control) (% of DMSO control); higher = less gametocytocidal activity, active = 50 or less
Settings: concentration: 1 µM; exposure time: 72 h
Procedure: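 Synchronous P. falciparum NF54/iGP1_RE9H ulg8 mature stage V gametocytes (day 12) were exposed to Cayman Epigenetics Screening Library compounds at 10 µM or 1 µM for 72 h at 37 °C. Viability was read as RE9H luciferase bioluminescence, normalised to DMSO plate controls (100%); 50 µM methylene blue was the positive control. Single point; hits were called at >50% inhibition.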

Structure (SMILES) | gametocyte viability
Cc1ccc(C(=O)NCCCCCC(=O)Nc2ccccc2N)cc1 | inactive: 83.5

Same assay, conditions: concentration: 10 µM; exposure time: 72 h

Structure (SMILES) | gametocyte viability
Cc1ccc(C(=O)NCCCCCC(=O)Nc2ccccc2N)cc1 | inactive: 87
